Laboratory results published in the supplement of paper PMC10849652.
This is one part of the list.

Sequences of proteins named here, by UniProt entry; tags and fusion partners are left off. A change or cut given only in a name is not applied to a line headed by its entry.
UniProt Q7Z2K6: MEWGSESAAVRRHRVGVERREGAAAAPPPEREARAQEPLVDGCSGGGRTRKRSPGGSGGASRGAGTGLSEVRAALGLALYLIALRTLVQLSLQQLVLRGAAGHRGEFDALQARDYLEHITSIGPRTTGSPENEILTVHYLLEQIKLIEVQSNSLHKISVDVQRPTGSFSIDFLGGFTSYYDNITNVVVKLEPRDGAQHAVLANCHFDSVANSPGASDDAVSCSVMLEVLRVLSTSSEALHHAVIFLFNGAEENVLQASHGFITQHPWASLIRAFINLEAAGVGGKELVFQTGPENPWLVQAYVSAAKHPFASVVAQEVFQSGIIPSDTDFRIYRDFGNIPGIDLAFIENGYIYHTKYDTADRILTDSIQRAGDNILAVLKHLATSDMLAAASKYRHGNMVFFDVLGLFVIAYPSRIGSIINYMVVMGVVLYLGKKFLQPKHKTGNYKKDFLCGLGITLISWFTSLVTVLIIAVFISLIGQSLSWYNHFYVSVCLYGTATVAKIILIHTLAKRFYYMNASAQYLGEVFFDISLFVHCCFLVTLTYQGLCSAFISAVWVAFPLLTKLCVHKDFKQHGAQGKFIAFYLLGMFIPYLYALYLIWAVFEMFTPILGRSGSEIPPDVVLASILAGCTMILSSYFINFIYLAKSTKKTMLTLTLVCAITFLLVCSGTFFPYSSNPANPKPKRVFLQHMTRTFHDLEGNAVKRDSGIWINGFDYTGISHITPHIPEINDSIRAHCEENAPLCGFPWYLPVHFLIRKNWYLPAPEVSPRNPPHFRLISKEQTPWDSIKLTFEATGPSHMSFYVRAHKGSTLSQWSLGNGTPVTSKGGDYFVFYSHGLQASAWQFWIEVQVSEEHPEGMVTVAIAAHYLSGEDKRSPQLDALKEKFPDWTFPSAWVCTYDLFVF
UniProt Q96A65: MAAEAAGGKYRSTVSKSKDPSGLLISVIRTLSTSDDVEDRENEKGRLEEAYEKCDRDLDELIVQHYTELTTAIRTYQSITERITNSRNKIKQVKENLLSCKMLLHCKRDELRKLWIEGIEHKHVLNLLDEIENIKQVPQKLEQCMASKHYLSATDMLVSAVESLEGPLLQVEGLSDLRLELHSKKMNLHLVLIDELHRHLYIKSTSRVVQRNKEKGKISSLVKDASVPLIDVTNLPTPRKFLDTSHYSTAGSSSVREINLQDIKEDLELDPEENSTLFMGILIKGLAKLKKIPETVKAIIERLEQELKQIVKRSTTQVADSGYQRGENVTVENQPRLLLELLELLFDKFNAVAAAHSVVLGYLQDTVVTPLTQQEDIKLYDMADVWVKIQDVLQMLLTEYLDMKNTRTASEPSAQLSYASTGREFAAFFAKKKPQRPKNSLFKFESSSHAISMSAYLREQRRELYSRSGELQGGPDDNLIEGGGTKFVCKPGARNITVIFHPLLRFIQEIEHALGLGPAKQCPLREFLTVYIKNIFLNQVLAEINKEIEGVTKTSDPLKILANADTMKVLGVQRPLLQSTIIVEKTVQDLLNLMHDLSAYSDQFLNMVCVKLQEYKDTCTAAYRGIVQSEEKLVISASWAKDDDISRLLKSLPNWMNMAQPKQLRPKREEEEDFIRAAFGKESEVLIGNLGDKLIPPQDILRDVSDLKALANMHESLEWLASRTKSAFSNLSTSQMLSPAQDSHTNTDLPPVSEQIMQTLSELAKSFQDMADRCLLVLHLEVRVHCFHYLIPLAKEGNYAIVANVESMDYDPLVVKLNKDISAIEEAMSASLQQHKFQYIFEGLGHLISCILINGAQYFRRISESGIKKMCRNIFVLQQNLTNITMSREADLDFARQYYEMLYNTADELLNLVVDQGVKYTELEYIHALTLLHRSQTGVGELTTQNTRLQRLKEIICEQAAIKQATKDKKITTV
UniProt Q5W0V3: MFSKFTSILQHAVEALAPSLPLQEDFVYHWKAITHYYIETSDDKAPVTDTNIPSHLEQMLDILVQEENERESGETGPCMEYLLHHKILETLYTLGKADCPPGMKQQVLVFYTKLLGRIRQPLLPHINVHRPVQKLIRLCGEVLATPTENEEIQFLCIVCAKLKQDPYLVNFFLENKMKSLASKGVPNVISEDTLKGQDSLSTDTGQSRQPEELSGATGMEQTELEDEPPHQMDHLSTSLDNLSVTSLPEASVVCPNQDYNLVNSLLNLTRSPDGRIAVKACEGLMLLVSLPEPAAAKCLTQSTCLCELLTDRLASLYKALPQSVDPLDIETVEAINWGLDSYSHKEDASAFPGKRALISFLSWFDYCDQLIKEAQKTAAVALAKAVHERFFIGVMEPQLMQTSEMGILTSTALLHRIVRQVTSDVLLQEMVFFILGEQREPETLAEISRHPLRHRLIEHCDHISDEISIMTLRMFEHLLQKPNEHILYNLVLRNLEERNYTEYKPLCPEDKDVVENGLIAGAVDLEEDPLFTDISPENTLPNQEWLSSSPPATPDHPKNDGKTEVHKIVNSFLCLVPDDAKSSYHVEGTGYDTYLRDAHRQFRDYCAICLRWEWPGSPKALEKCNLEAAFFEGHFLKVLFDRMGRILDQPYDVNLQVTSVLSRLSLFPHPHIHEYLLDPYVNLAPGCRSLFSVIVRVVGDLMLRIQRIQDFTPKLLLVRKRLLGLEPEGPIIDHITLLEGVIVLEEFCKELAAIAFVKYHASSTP
UniProt Q9UF33: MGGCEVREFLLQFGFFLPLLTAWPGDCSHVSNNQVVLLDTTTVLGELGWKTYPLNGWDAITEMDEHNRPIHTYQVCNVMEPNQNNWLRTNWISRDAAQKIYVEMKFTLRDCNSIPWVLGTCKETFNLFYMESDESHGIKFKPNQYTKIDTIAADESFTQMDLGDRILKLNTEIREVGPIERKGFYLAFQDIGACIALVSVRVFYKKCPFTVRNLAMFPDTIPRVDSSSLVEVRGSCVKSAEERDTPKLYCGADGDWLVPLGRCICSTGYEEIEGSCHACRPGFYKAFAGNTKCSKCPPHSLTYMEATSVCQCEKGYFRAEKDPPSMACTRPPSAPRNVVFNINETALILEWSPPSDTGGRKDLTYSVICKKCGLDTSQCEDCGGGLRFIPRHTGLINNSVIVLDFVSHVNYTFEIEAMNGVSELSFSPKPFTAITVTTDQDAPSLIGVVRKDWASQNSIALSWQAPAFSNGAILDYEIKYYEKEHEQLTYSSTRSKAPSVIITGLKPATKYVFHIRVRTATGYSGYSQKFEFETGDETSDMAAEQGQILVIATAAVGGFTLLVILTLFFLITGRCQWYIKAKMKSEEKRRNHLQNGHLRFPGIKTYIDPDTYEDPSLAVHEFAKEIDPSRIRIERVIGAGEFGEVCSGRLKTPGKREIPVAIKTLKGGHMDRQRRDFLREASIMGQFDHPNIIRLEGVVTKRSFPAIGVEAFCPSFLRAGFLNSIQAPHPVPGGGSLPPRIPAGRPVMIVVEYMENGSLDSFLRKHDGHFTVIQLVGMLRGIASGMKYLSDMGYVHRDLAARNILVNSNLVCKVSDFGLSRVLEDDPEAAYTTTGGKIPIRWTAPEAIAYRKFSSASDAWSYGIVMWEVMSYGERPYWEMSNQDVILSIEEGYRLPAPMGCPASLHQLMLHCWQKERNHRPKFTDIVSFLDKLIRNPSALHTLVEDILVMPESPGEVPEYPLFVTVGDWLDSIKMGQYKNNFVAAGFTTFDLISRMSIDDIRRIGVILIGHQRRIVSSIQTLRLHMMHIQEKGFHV
UniProt Q06265, whole entry, looked up: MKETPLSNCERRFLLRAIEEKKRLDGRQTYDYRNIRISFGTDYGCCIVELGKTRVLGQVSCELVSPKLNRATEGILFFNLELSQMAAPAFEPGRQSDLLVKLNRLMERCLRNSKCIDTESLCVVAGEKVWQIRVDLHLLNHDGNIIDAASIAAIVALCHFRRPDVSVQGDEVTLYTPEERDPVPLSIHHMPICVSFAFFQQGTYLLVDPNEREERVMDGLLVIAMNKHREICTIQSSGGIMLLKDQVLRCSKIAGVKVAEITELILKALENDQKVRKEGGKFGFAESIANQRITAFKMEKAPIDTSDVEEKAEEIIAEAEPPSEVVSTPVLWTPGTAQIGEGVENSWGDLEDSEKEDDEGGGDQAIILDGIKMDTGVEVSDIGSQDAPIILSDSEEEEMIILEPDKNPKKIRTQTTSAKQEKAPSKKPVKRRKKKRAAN
UniProt Q8N612: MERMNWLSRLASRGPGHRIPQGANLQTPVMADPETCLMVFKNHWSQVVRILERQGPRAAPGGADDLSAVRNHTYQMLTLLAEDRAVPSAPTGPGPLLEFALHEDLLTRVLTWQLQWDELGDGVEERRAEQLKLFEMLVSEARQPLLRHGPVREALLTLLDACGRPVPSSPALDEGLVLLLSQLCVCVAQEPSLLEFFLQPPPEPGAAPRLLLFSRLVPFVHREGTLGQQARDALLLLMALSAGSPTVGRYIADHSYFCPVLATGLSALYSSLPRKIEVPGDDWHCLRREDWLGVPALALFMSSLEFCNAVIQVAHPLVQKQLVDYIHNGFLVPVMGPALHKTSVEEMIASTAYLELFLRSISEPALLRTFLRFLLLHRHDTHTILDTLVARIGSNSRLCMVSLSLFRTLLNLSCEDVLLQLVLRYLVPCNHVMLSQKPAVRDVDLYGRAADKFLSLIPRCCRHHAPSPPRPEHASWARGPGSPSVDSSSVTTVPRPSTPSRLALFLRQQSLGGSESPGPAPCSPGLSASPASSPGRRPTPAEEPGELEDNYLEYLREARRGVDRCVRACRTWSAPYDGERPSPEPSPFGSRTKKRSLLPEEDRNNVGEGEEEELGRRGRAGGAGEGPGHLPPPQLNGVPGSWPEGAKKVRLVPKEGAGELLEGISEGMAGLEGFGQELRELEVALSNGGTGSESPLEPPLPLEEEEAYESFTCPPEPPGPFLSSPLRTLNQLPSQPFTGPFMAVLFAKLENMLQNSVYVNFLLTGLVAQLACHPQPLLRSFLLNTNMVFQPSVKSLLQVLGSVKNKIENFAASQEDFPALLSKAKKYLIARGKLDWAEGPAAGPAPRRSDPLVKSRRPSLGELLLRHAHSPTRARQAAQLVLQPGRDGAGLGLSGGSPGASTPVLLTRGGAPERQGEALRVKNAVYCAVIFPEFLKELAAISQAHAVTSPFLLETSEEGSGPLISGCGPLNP
UniProt Q96PV7: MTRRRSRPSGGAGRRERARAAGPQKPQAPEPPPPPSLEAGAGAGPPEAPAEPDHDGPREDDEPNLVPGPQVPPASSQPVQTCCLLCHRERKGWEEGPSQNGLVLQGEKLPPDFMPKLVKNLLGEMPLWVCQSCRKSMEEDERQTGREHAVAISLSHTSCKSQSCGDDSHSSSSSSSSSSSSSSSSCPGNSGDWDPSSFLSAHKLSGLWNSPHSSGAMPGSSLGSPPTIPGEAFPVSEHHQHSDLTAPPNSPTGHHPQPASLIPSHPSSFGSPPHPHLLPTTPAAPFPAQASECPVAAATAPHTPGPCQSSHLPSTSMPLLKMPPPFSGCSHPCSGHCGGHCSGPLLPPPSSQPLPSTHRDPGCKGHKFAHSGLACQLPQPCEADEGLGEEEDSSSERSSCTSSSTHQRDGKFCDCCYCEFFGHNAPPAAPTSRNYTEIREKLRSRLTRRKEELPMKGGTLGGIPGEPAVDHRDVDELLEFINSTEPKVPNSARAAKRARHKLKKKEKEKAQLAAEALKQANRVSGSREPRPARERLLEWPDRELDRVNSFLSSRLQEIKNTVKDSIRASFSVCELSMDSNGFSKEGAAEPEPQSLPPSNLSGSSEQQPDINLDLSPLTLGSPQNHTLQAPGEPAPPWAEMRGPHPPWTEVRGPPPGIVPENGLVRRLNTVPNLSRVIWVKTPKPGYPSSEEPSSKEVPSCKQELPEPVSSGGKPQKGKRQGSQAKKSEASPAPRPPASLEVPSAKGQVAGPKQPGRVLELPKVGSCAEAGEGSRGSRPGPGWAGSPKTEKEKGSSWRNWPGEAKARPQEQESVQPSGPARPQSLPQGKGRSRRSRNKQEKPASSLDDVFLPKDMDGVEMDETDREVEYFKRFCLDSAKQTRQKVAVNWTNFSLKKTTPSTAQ
UniProt Q8TBG4: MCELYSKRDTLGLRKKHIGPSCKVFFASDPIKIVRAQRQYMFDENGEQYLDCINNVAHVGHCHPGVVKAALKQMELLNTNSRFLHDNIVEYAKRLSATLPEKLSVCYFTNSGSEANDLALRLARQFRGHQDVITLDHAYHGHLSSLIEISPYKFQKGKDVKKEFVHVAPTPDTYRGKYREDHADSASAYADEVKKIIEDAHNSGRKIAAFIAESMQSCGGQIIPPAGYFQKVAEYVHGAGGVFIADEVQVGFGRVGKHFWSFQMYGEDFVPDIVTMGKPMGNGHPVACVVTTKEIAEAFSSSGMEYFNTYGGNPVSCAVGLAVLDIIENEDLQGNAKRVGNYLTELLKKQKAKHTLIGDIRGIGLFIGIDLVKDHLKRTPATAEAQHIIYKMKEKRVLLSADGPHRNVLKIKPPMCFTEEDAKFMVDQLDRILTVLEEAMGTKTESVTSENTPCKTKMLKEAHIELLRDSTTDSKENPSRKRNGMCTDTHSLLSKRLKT

How the values were obtained:
Assay in all cases: log2 fold change, soluble protein after heating vs DMSO (PISA); higher = thermal stabilisation; K562 cells, 10 uM, 30 min; active = over 0.2 and 3.5 SD of the protein, either way, in both replicates (recomputed)
[1] = compound: C1=CC=C(C=C1)[C@H](COC2=CC3=C(C=C2)NC(=O)N3)NC(=O)C4=CC=CN(C4=O)CC5=CC(=C(C=C5)F)F
Outline: (§1)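 Aliquots of K562 cells (2×10^6 cells/mL) treated with 10 μM compound for 30 min were heated for 3 min over 48°C-58°C. After pooling and extraction in PBS with 0.5% NP-40 at 4°C, soluble protein from a 21,000xg, 90 min spin was quantified by TMTpro 16plex LC-MS/MS with channel sums equalised. Thermal stability is expressed against control samples, from duplicates, as a log2 fold change.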

[2] = compound: CC1=C(SC2=C1C(=N[C@H](C3=NN=C(N32)C)CC(=O)N)C4=CC=C(C=C4)Cl)C
Outline: as §1

[3] = compound: CC1=C2C(=CC=C1)N=C(N(C2=O)C3=CC=CC=C3C)CN4C=NC5=C(N=CN=C54)N
Outline: as §1

[4] = compound: Cc1sc2c(c1C)C(c1ccc(Cl)cc1)=N[C@@H](CC(=O)OC(C)(C)C)c1nnc(C)n1-2
Outline: as §1

[5] = compound: c1ccc([C@@H]2C[C@H]2NC2CCNCC2)cc1
Outline: as §1

Measured: log2 fold change

EXOC3 (UniProt O60645)
inactive: [1] -0.019 | [2] 0.101 | [3] 0.076 | [4] 0.028 | [5] -0.068

ERMP1 (UniProt Q7Z2K6)
inactive: [1] 0.02 | [2] 0.027 | [3] 0.079 | [4] -0.045 | [5] 0.02

FADS1, A0A0A0MR51
inactive: [1] -0.051 | [2] 0.026 | [3] 0.026 | [4] -0.005 | [5] -0.038

Random excerpt: 2 records from the list.
FADS1, A0A0A0MR51
inactive: [1] -0.051 | [2] 0.026 | [3] 0.026 | [4] -0.005 | [5] -0.038

ERMP1 (UniProt Q7Z2K6)
inactive: [1] 0.02 | [2] 0.027 | [3] 0.079 | [4] -0.045 | [5] 0.02

Remaining list, next part:

FAM133B (UniProt Q5BKY9)
inactive: [1] 0.02 | [2] 0.027 | [3] 0.008 | [4] 0.03 | [5] 0.061

EXOC4 (UniProt Q96A65)
inactive: [1] -0.05 | [2] 0.052 | [3] 0.015 | [4] 0.081 | [5] -0.049

ERCC4 (UniProt Q92889)
inactive: [1] -0.057 | [2] 0.125 | [3] 0.273 | [4] 0.123 | [5] 0

ERLIN2 (UniProt O94905)
inactive: [1] -0.025 | [2] -0.048 | [3] -0.038 | [4] 0.006 | [5] -0.044

FAM160B1 (UniProt Q5W0V3)
inactive: [1] -0.005 | [2] 0.026 | [3] -0.01 | [4] -0.022 | [5] -0.041

FAF1 (UniProt Q9UNN5)
inactive: [1] -0.005 | [2] 0.011 | [3] 0.031 | [4] 0.003 | [5] 0.005

ERCC6 (UniProt Q03468)
inactive: [1] 0.013 | [2] -0.025 | [3] -0.018 | [4] -0.008 | [5] 0.151

EPHA6 (UniProt Q9UF33)
inactive: [1] 0.084 | [2] -0.1 | [3] 0.72 | [4] 0.048 | [5] 0.281

F2 (UniProt P00734)
inactive: [1] -0.046 | [2] -0.006 | [3] 0.059 | [4] -0.015 | [5] 0.021

EXOSC9 isoform 2 (UniProt Q06265)
inactive: [1] 0.025 | [2] -0.017 | [3] -0.016 | [4] 0.018 | [5] 0.062

FAM160A2 isoform 2 (UniProt Q8N612)
inactive: [1] -0.027 | [2] -0.054 | [3] 0.343 | [4] 0.148 | [5] -0.344

EPB41L3 (UniProt Q9Y2J2)
inactive: [1] -0.021 | [2] 0.044 | [3] 0.043 | [4] 0 | [5] -0.003

ETF1 (UniProt P62495)
inactive: [1] -0.037 | [2] 0.05 | [3] 0.029 | [4] -0.005 | [5] -0.019

EPB41L2 (UniProt O43491)
inactive: [1] 0.011 | [2] 0.059 | [3] 0.052 | [4] -0.007 | [5] 0

EPRS (UniProt P07814)
inactive: [1] 0.026 | [2] -0.205 | [3] -0.105 | [4] 0.224 | [5] 0.009

EPN2 (UniProt O95208)
inactive: [1] 0.012 | [2] 0.03 | [3] 0.007 | [4] 0.024 | [5] 0.102

ERG28 (UniProt Q9UKR5)
inactive: [1] -0.071 | [2] -0.262 | [3] 0.002 | [4] -0.008 | [5] 0.2

FAM193B (UniProt Q96PV7)
inactive: [1] -0.115 | [2] 0.011 | [3] -0.103 | [4] 0.273 | [5] -0.115

ETNPPL (UniProt Q8TBG4)
inactive: [1] -0.16 | [2] -0.023 | [3] -0.07 | [4] 0.083 | [5] 0.017

ERCC2 (UniProt P18074)
inactive: [1] 0 | [2] -0.025 | [3] -0.044 | [4] -0.104 | [5] 0.05

FAM172A (UniProt Q8WUF8)
inactive: [1] 0 | [2] -0.001 | [3] 0.049 | [5] 0.036

F5 (UniProt P12259)
inactive: [1] -0.025 | [2] -0.091 | [3] 0.003 | [4] 0.077 | [5] 0.014
